Measured values reported in publication PMC6820788, “Structural insights of human mitofusin-2 into mitochondrial fusion and CMT2A onset” (Nature Communications, 2019).
Results are given in words; binding and its absence hold for the method and conditions named.

Experiments:
[1] = molecular target: MFN2IM (modified human MFN2 construct with deletions of residues 1–21 and 401–705) (human) (UniProt O95140); assay: condition: only nucleotide-free or loaded with GDP, GTPγS or GMPPNP (50 μM protein); SEC-RALS; analytical gel filtration coupled to RALS; 50 μM protein nucleotide-free or with 500 μM GDP, GTPγS or GMPPNP; 20 mM HEPES pH 7.5, 150 mM KCl, 5 mM MgCl2, 1 mM DTT; both purified
MFN2IM(V273D) (human) = MFN2IM(V273D) (human) (UniProt O95140); assay: SEC-RALS; analytical gel filtration (Superdex 200 10/300) coupled to right-angle light scattering; 50 μM protein incubated with 500 μM GTP or GDP∙BeF3− for 2 h at room temperature; 20 mM HEPES pH 7.5, 150 mM KCl, 5 mM MgCl2, 1 mM DTT; both purified

| Binder | binding [1] | binding (MFN2IM(V273D) (human)) |
| --- | --- | --- |
| MFN2IM (modified human MFN2 construct with deletions of residues 1–21 and 401–705) (domain or fragment, UniProt O95140 22-757, looked up, human mitofusin-2 (MFN2) with residues 1-21 and 401-705 deleted (MFN2IM); Theoretical molecular mass 52.6 kDa; also called truncated human MFN2; wild-type MFN2IM; source: E. coli Rosetta (DE3), purified (Ni-NTA, His6-tag removed with PreScission protease, second Ni-NTA, gel filtration); not shown: His6, N-terminal, cleaved) AEVNASPLKHFVTAKKKINGIFEQLGAYIQESATFLEDTYRNAELDPVTTEEQVLDVKGYLSKVRGISEVLARRHMKVAFFGRTSNGKSTVINAMLWDKVLPSGIGHTTNCFLRVEGTDGHEAFLLTEGSEEKRSAKTVNQLAHALHQDKQLHAGSLVSVMWPNSKCPLLKDDLVLMDSPGIDVTTELDSWIDKFCLDADVFVLVANSESTLMQTEKHFFHKVSERLSRPNIFILNNRWDASASEPEYMEEVRRQHMERCTSFLVDELGVVDRSQAGDRIFFVSAKEVLNARIQKAQGMPEGGGALAEGFQVRMFEFQNFERRFEECISQSAVKTKFEQHTVRAKQIAEAVRLIMDSLHMAAREQQVYCEEMREERQDRTRENLEQEIAAMNKKIEVLDSLQSKAKLLRNKAGWLDSELNMFTHQYLQPSR | no binding |  |
| MFN2IM(V273D) (domain or fragment, UniProt O95140) AEVNASPLKHFVTAKKKINGIFEQLGAYIQESATFLEDTYRNAELDPVTTEEQVLDVKGYLSKVRGISEVLARRHMKVAFFGRTSNGKSTVINAMLWDKVLPSGIGHTTNCFLRVEGTDGHEAFLLTEGSEEKRSAKTVNQLAHALHQDKQLHAGSLVSVMWPNSKCPLLKDDLVLMDSPGIDVTTELDSWIDKFCLDADVFVLVANSESTLMQTEKHFFHKVSERLSRPNIFILNNRWDASASEPEYMEEDRRQHMERCTSFLVDELGVVDRSQAGDRIFFVSAKEVLNARIQKAQGMPEGGGALAEGFQVRMFEFQNFERRFEECISQSAVKTKFEQHTVRAKQIAEAVRLIMDSLHMAAREQQVYCEEMREERQDRTRENLEQEIAAMNKKIEVLDSLQSKAKLLRNKAGWLDSELNMFTHQYLQPSR |  | no binding (tested: 50 μM protein) |
